Experimental data: PubChem BioAssay AID1259405 (NCATS, 2018)
Purpose: 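Knock-downs that lift recombinant protein yield in hamster ovary cells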 (primary screen). Cell system: Chinese hamster CHO-K1 ovary cells with stable secreted eGFP expression. Reagents: single siRNA against mouse genes, 0.8 pmol siRNA per well (2 µl of 400 nM stock). Timing: 3 days. Read-out: 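Per-well intracellular GFP measured by laser scanning cytometry, plus viability from ATP luminescence, each relative to plate median of non-targeting control wells, in %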. Direction: GFP, % of control: higher = more GFP per well, higher productivity; viability (ATP), % of control: higher = more viable cells (more ATP). Active means: 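a knock-down is called active if GFP reaches 120% or more of non-targeting control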.
In all, the deposit lists about 50,000 reagents; below is a random part of them. About 4,000 of all reagents (8%) were called active. 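Mouse siRNA library applied to hamster cells; one well for each siRNA.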 Reagent sequences are not shown.

| target gene | PubChem SID | GFP, % of control | viability (ATP), % of control | Call |
| --- | --- | --- | --- | --- |
| Lrrc28 (leucine rich repeat containing 28) | SID363540281 | 75 | 85.4 | inactive |
| Lrrc28 (leucine rich repeat containing 28) | SID363542033 | 81.6 | 83.9 | inactive |
| Lrrc28 (leucine rich repeat containing 28) | SID363566949 | 83.1 | 77.9 | inactive |
| Rab6b (RAB6B, member RAS oncogene family) | SID363570089 | 137 | 128 | active |
| Rab6b (RAB6B, member RAS oncogene family) | SID363576425 | 62.2 | 44.7 | inactive |
| Rab6b (RAB6B, member RAS oncogene family) | SID363579593 | 60.1 | 85.2 | inactive |
| Pfkfb3 (6-phosphofructo-2-kinase/fructose-2,6-biphosphatase 3) | SID363575160 | 91.4 | 103 | inactive |
| Pfkfb3 (6-phosphofructo-2-kinase/fructose-2,6-biphosphatase 3) | SID363580792 | 51.7 | 72.2 | inactive |
| Pfkfb3 (6-phosphofructo-2-kinase/fructose-2,6-biphosphatase 3) | SID363582904 | 77.5 | 76.7 | inactive |
| Polr1h (RNA polymerase I subunit H) | SID363569300 | 112 | 149 | inactive |
| Polr1h (RNA polymerase I subunit H) | SID363583732 | 62.4 | 78.5 | inactive |
| Or4c117 (olfactory receptor family 4 subfamily C member 117) | SID363554125 | 49.7 | 44.2 | inactive |
| Or4c117 (olfactory receptor family 4 subfamily C member 117) | SID363567572 | 91.8 | 68.1 | inactive |
| Or4c117 (olfactory receptor family 4 subfamily C member 117) | SID363584929 | 35.5 | 84.2 | inactive |
| Gemin5 (gem nuclear organelle associated protein 5) | SID363540096 | 53.3 | 69.4 | inactive |
| Gemin5 (gem nuclear organelle associated protein 5) | SID363561397 | 70.6 | 73.8 | inactive |
| Gemin5 (gem nuclear organelle associated protein 5) | SID363564433 | 52 | 83.5 | inactive |
| Spag17 (sperm associated antigen 17) | SID363542623 | 60.8 | 89.9 | inactive |
| Spag17 (sperm associated antigen 17) | SID363552114 | 98.4 | 98 | inactive |
| Spag17 (sperm associated antigen 17) | SID363559719 | 80.7 | 88.2 | inactive |
| Col6a2 (collagen, type VI, alpha 2) | SID363582511 | 84 | 117 | inactive |
| Col6a2 (collagen, type VI, alpha 2) | SID363584271 | 84.5 | 91.8 | inactive |
| Thrb (thyroid hormone receptor beta) | SID363571129 | 85.1 | 70.8 | inactive |
| Thrb (thyroid hormone receptor beta) | SID363571481 | 70.1 | 67.5 | inactive |
| Thrb (thyroid hormone receptor beta) | SID363571833 | 98.9 | 93.7 | inactive |
| Tiam1 (T cell lymphoma invasion and metastasis 1) | SID363570112 | 126 | 110 | active |
| Tiam1 (T cell lymphoma invasion and metastasis 1) | SID363576448 | 92.9 | 55.8 | inactive |
| Tiam1 (T cell lymphoma invasion and metastasis 1) | SID363579616 | 94.5 | 59.6 | inactive |
| Timp2 (tissue inhibitor of metalloproteinase 2) | SID363572849 | 86.4 | 113 | inactive |
| Timp2 (tissue inhibitor of metalloproteinase 2) | SID363577425 | 76.9 | 70 | inactive |
| Timp2 (tissue inhibitor of metalloproteinase 2) | SID363580945 | 12 | 121 | inactive |
| Il5 (interleukin 5) | SID363582440 | 89.9 | 134 | inactive |
| Il5 (interleukin 5) | SID363584200 | 63.2 | 67 | inactive |
| Fbxl12 (F-box and leucine-rich repeat protein 12) | SID363539945 | 67.8 | 81 | inactive |
| Fbxl12 (F-box and leucine-rich repeat protein 12) | SID363561246 | 31.9 | 21.2 | inactive |
| Fbxl12 (F-box and leucine-rich repeat protein 12) | SID363564282 | 105 | 91.9 | inactive |
| Trim25 (tripartite motif-containing 25) | SID363572669 | 84.5 | 82.9 | inactive |
| Trim25 (tripartite motif-containing 25) | SID363577949 | 128 | 101 | active |
| Trim25 (tripartite motif-containing 25) | SID363582173 | 98.4 | 117 | inactive |
| Igha (immunoglobulin heavy constant alpha) | SID363553849 | 60.7 | 62.9 | inactive |
| Igha (immunoglobulin heavy constant alpha) | SID363561806 | 99.2 | 82.8 | inactive |
| Igha (immunoglobulin heavy constant alpha) | SID363565544 | 163 | 61 | active |
| Aox3 (aldehyde oxidase 3) | SID363546695 | 66.3 | 69.3 | inactive |
| Aox3 (aldehyde oxidase 3) | SID363548451 | 68 | 71.2 | inactive |
| Aox3 (aldehyde oxidase 3) | SID363560629 | 80.3 | 89.8 | inactive |
| Fpr-rs6 (formyl peptide receptor, related sequence 6) | SID363544346 | 54.7 | 56.9 | inactive |
| Fpr-rs6 (formyl peptide receptor, related sequence 6) | SID363550674 | 77.4 | 92.4 | inactive |
| Fpr-rs6 (formyl peptide receptor, related sequence 6) | SID363557223 | 74.1 | 89.4 | inactive |
| Cst11 (cystatin 11) | SID363555151 | 164 | 59.4 | active |
| Cst11 (cystatin 11) | SID363563812 | 75.5 | 53.6 | inactive |
| Cst11 (cystatin 11) | SID363587358 | 59.3 | 99.5 | inactive |
| Acad8 (acyl-Coenzyme A dehydrogenase family, member 8) | SID363574950 | 76.7 | 74.9 | inactive |
| Acad8 (acyl-Coenzyme A dehydrogenase family, member 8) | SID363580582 | 42.4 | 61.2 | inactive |
| Acad8 (acyl-Coenzyme A dehydrogenase family, member 8) | SID363582694 | 79.8 | 89.5 | inactive |
| Ctla2a (cytotoxic T lymphocyte-associated protein 2 alpha) | SID363547323 | 71 | 108 | inactive |
| Ctla2a (cytotoxic T lymphocyte-associated protein 2 alpha) | SID363558092 | 50 | 71.2 | inactive |
| Ctla2a (cytotoxic T lymphocyte-associated protein 2 alpha) | SID363559850 | 78.2 | 90.6 | inactive |
| Dock7 (dedicator of cytokinesis 7) | SID363545641 | 82.4 | 50.9 | inactive |
| Dock7 (dedicator of cytokinesis 7) | SID363549154 | 76.3 | 86.7 | inactive |
| Dock7 (dedicator of cytokinesis 7) | SID363562960 | 66.5 | 59.9 | inactive |
| Otud7a (OTU domain containing 7A) | SID363569272 | 0 | 19.2 | inactive |
| Otud7a (OTU domain containing 7A) | SID363583704 | 79.8 | 94.2 | inactive |
| Pter (phosphotriesterase related) | SID363569594 | 91.3 | 103 | inactive |
| Pter (phosphotriesterase related) | SID363577338 | 93.1 | 79.7 | inactive |
| Pter (phosphotriesterase related) | SID363578746 | 24.6 | 41.1 | inactive |
| Ppp1r7 (protein phosphatase 1, regulatory subunit 7) | SID363575246 | 106 | 84 | inactive |
| Ppp1r7 (protein phosphatase 1, regulatory subunit 7) | SID363580878 | 81.6 | 81.6 | inactive |
| Ppp1r7 (protein phosphatase 1, regulatory subunit 7) | SID363582990 | 50 | 68.5 | inactive |
| Dnajb13 (DnaJ heat shock protein family (Hsp40) member B13) | SID363572702 | 34 | 49.4 | inactive |
| Dnajb13 (DnaJ heat shock protein family (Hsp40) member B13) | SID363577982 | 74.9 | 86.1 | inactive |
| Dnajb13 (DnaJ heat shock protein family (Hsp40) member B13) | SID363582206 | 80.4 | 138 | inactive |
| Eif2d (eukaryotic translation initiation factor 2D) | SID363568743 | 63.5 | 68.2 | inactive |
| Eif2d (eukaryotic translation initiation factor 2D) | SID363576135 | 81.3 | 66.2 | inactive |
| Eif2d (eukaryotic translation initiation factor 2D) | SID363578951 | 72.5 | 46.8 | inactive |
| Or9i14 (olfactory receptor family 9 subfamily I member 14) | SID363544654 | 108 | 65.1 | inactive |
| Or9i14 (olfactory receptor family 9 subfamily I member 14) | SID363550982 | 83.6 | 92.2 | inactive |
| Or9i14 (olfactory receptor family 9 subfamily I member 14) | SID363557531 | 57.3 | 53.4 | inactive |
| Rubcn | SID363543518 | 59.6 | 79.5 | inactive |
| Rubcn | SID363553011 | 66.5 | 97.4 | inactive |
| Rubcn | SID363558859 | 77.8 | 91 | inactive |
| Gm9725 (predicted gene 9725) | SID363542551 | 103 | 84.7 | inactive |
| Gm9725 (predicted gene 9725) | SID363552042 | 45.5 | 51.9 | inactive |
| Gm9725 (predicted gene 9725) | SID363559647 | 79.2 | 105 | inactive |
| H2-M10.5 (histocompatibility 2, M region locus 10.5) | SID363553759 | 40.5 | 67.7 | inactive |
| H2-M10.5 (histocompatibility 2, M region locus 10.5) | SID363561716 | 75.8 | 78.3 | inactive |
| H2-M10.5 (histocompatibility 2, M region locus 10.5) | SID363565454 | 65.5 | 68.7 | inactive |

Hits (from the list above):
| target gene | PubChem SID | GFP, % of control | viability (ATP), % of control | Call |
| --- | --- | --- | --- | --- |
| Rab6b (RAB6B, member RAS oncogene family) | SID363570089 | 137 | 128 | active |
| Tiam1 (T cell lymphoma invasion and metastasis 1) | SID363570112 | 126 | 110 | active |
| Trim25 (tripartite motif-containing 25) | SID363577949 | 128 | 101 | active |
| Igha (immunoglobulin heavy constant alpha) | SID363565544 | 163 | 61 | active |
| Cst11 (cystatin 11) | SID363555151 | 164 | 59.4 | active |
